Results: patent publication US20230293458A1, “MULTIBIOTIC AGENTS AND METHODS OF USING THE SAME” (Flagship Pioneering Innovations V, Inc., priority 2017, published 2023)
Some entries share one result that the patent states for a list of compounds.

Assay: Stability of multibiotic agents in Simulated Intestinal Fluid (SIF)
Format: in vitro ADME
Conditions: conclusion from the SGF and SIF stability data of Table 1
Procedure: Assay 2. Stability of multibiotic agents in Simulated Intestinal Fluid (SIF). This assay can be used to assess the stability of a multibiotic agent in a small intestine. Phosphate buffer was prepared by dissolving 0.42 g of sodium hydroxide pellets and 3.95 g of monobasic sodium phosphate monohydrate and 6.19 g of sodium chloride in ultrapure water (MilliQ®, Millipore Sigma, Darmstadt, Germany). The pH was adjusted to 6.7 using aq. HCl and aq. NaOH, as necessary, and the solution was diluted with ultrapure water to produce 1 L of the pH 6.7 buffer. 112 mg FaSSIF powder (Biorelevant™, London, UK) was dissolved in 50 mL of the pH 6.7 buffer. 2 to 3 mL of the resulting solution were then added to 500 mg pancreatin (Millipore Sigma, Darmstadt, Germany). The resulting mixture was agitated by finger tapping the vessel containing the mixture until milky suspension formed. At this time, the remainder of the 50 mL FaSSiF/pH 6.7 buffer solution was added. The resulting suspension was flipped upside down 10 times to produce SIF, which was used fresh. Test compounds are dissolved in DMSO stock to 1 mM. An aliquot of the DMSO stock solution is removed and diluted in the SIF media in 15 mL falcon tubes to produce a mixture with a tested compound concentration of 1 μM. A 1 mL aliquot is immediately removed and diluted once with 1 volume of acetonitrile for T0 timepoint. The mixture is sealed and agitated at 37° C. in an incubator. Aliquots (1 mL) are removed at regular intervals and immediately quenched by the addition of 1 volume of acetonitrile. The resulting samples are analyzed by LC/MS to determine degradation rates.

SMILES | delivery site concluded from Table 1 (in words)
CC(=O)CC(=O)O[C@H]1CO[C@H]2[C@@H]1OC[C@H]2OC(=O)CC(C)=O [Example 115, [(3S,3aR,6R,6aR)-6-(3-oxobutanoyloxy)-2,3,3a,5,6,6a-hexahydrofuro[3,2-b]furan-3-yl] 3-oxobutanoate] | can be delivered at least to the small intestine
Cc1ncc(COC(=O)Cc2c[nH]c3ccccc23)c(COC(=O)Cc2c[nH]c3ccccc23)c1OC(=O)Cc1c[nH]c2ccccc12 [Example 102, [5-[2-(1H-indol-3-yl)acetyl]oxy-4-[[2-(1H-indol-3-yl)acetyl]oxymethyl]-6-methyl-3-pyridyl]methyl 2-(1H-indol-3-yl)acetate] | can be delivered at least to the small intestine
CC(=O)Oc1cc(OC(C)=O)c2c(=O)c(OC(C)=O)c(-c3cc(OC(C)=O)c(OC(C)=O)c(OC(C)=O)c3)oc2c1 [Example 177, [3,5-diacetoxy-4-oxo-2-(3,4,5-triacetoxyphenyl)chromen-7-yl] acetate] | can be delivered at least to the small intestine
CCCC(=O)O[C@H](C)CC(=O)Oc1ccc(/C=C/c2cc(OC(=O)C[C@@H](C)OC(=O)CCC)cc(OC(=O)C[C@@H](C)OC(=O)CCC)c2)cc1 [Example 72, [4-[(E)-2-[3,5-bis[[(3R)-3-butanoyloxybutanoyl]oxy]phenyl]vinyl]phenyl] (3R)-3-butanoyloxy-butanoate] | can be delivered at least to the small intestine
CCCC(=O)OC[C@H](OC(=O)CCC)[C@@H](COC(=O)CCC)OC(=O)CCC [Example 82, (2R,3S)-butane-1,2,3,4-tetrayl tetrabutyrate] | can be delivered at least to the small intestine
CCCC(=O)O[C@H](C)CC(=O)O[C@H]1CO[C@H]2[C@@H]1OC[C@H]2OC(=O)C[C@@H](C)OC(=O)CCC [Example 79, [(3S,3aR,6R,6aR)-6-[(3R)-3-butanoyloxybutanoyl]oxy-2,3,3a,5,6,6a-hexahydrofuro[3,2-b]furan-3-yl] (3R)-3-butanoyloxybutanoate] | can be delivered at least to the small intestine
CC(=O)OCC1(OC(C)=O)OC[C@@H](OC(C)=O)[C@H](OC(C)=O)[C@@H]1OC(C)=O (stereo partly drawn) [Example 162, [(3S,4S,5R)-2,3,4,5-tetraacetoxytetrahydropyran-2-yl]methyl acetate] | can be delivered at least to the small intestine
CC(=O)Oc1cc(OC(C)=O)c2c(c1)O[C@H](c1cc(OC(C)=O)c(OC(C)=O)c(OC(C)=O)c1)[C@H](OC(=O)c1cc(OC(C)=O)c(OC(C)=O)c(OC(C)=O)c1)C2 [Example 16, [(2R,3R)-5,7-diacetoxy-2-(3,4,5-triacetoxyphenyl)chroman-3-yl] 3,4,5-triacetoxybenzoate] | can be delivered at least to the small intestine
CCCC(=O)OC[C@H]1OC(O)[C@H](OC(=O)CCC)[C@@H](OC(=O)CCC)[C@@H]1OC(=O)CCC (stereo partly drawn) [Example 161, [(2R,3R,4S,5R)-3,4,5-tri(butanoyloxy)-6-hydroxy-tetrahydropyran-2-yl]methyl butanoate] | can be delivered at least to the small intestine
CC(=O)Oc1cc(OC(C)=O)c2c(=O)c(OC(C)=O)c(-c3ccc(OC(C)=O)c(OC(C)=O)c3)oc2c1 [Example 74, [2-acetoxy-4-(3,5,7-triacetoxy-4-oxo-chromen-2-yl)phenyl] acetate] | can be delivered at least to the small intestine
CCCC(=O)OCCCNC(=O)[C@H](OC(=O)CCC)C(C)(C)COC(=O)CCC [Example 90, 3-[[(2R)-2,4-di(butanoyloxy)-3,3-dimethyl-butanoyl]amino] propyl butanoate] | can be delivered at least to the small intestine
CCC(=O)OC1OC[C@@H](OC(=O)CC)[C@H](OC(=O)CC)[C@H]1OC(=O)CC (stereo partly drawn) [Example 165, [(3R,4S,5R)-4,5,6-tri(propanoyloxy)tetrahydropyran-3-yl] propanoate] | can be delivered at least to the small intestine
